According to PMC4439114:
No constants are given. Whether binding was seen depends on the method and setting. Binding seen in cells or lysates may run through a third protein. Some results given as binding are weak or reduced against the parent protein; the word gives no strength.

Biological target: death receptor (DR)5 (human (endogenous in L-O2)), O14763
Assay: co-IP; DR5 immunoprecipitated (DISC isolation) from whole-cell extracts of L-O2 and L-O2-HBx cells 15 min after TRAIL (30 ng/ml), also L-O2-HBx cells transfected with the A20 expression vector or control vector; IP buffer 1% Nonidet P-40, 50 mM Tris-HCl pH 7.4, 50 mM EDTA, 150 mM NaCl; protein A/G plus agarose beads and 5 ug antibody overnight at 4 °C; partners detected by western blot
Settings: remark: other sources report otherwise

B1: caspase-8, Q14790 1-479 (enzyme)
chain: MDFSRNLYDIGEQLDSEDLASLKFLSLDYIPQRKQEPIKDALMLFQRLQEKRMLEESNLSFLKELLFRINRLDLLITYLNTRKEEMERELQTPGRAQISAYRVMLYQISEEVSRSELRSFKFLLQEEISKCKLDDDMNLLDIFIEMEKRVILGEGKLDILKRVCAQINKSLLKIINDYEEFSKERSSSLEGSPDEFSNGEELCGVMTISDSPREQDSESQTLDKVYQMKSKPRGYCLIINNHNFAKAREKVPKLHSIRDRNGTHLDAGALTTTFEELHFEIKPHDDCTVEQIYEILKIYQLMDHSNMDCFICCILSHGDKGIIYGTDGQEAPIYELTSQFTGLKCPSLAGKPKVFFIQACQGDNYQKGIPVETDSEEQPYLEMDLSSPQTRYIPDEADFLLGMATVNNCVSYRNPAEGTWYIQSLCQSLRERCPRGDDILTILTEVNYEVSNKDDKKNMGKQMPQPTFTLRKKLVFPSD
For B1, the binding was “binds”.
